In patent US6340560B1, “Aminopolycarboxylic acid chelating agent, heavy metal chelate compound thereof, photographic additive and processing method” (Fuji Photo Film Co., Ltd., priority 1996, dated 2002):

Legend:
[1] = Example 6: residual rates of developing agent and hydroxylamine in color developer after running process; settings: chelating agent 0.01 mol/l in color developer; for Residual amount of hydroxylamine (pH 9.85) / Residual amount of main ingredient (pH 9.85): pH 9.85, after running; for Residual amount of hydroxylamine (pH 10.25) / Residual amount of main ingredient (pH 10.25): pH 10.25, after running
[2] = Example 6: precipitate in the color developing solution after running process; design: key: ◯: indicates that the solution contained no precipitate at all.; X: indicates that the larger the numeral, the larger the amount of the precipitate in the solution; settings: color developing solution of pH 10.25 after running
[3] = Example 9: difference in B density between aged and fresh color developer; settings: aged (38° C., 30 days) minus fresh developer; 0.01 mol chelating compound; 5 ppm ferric, 150 ppm calcium ion
[4] = Example 9: precipitation in the color developer after ageing, macroscopic; design: key: G represents no precipitate at all.; Larger the number of B's, the larger the amount of the precipitate; settings: 38° C., 30 days; 0.01 mol chelating compound; 5 ppm ferric, 150 ppm calcium ion
[5] = Example 1: residual silver in highest density part after running bleach-fixing process (NBlix), fluorescent X-ray analysis; settings: chelating agent 0.17 mol/l with ferric nitrate in bleach-fixing bath, 110 sec, 45° C.
[6] = Example 1: increase in stain during dark wet-heat storage of processed material; settings: 60° C., 70% RH, 4 weeks
[7] = Example 1: bleaching fog, Dmin (G light) versus standard bleaching solution; settings: relative to standard bleaching solution (Dmin 0.60)
[8] = Example 2: Blix decoloring, Dmax (R light) before and after reprocessing (PEDTA)
[9] = Example 2: residual silver after bleach-fixing (PBlix), fluorescent X-ray method; settings: 35° C., chelating agent with ferric nitrate
[10] = Example 8: precipitate in the color developing solution after ageing; design: key: ◯: indicates that no precipitate was formed at all.; indicates that the precipitate was formed. The larger the number of X, the more serious the precipitation; settings: 1 g/l (HEDP 60%: 1.6 g/l); 5 ppm ferric ion, 150 ppm calcium ion; 38° C., 20 days
[11] = Example 8: developing agent remaining in aged color developer with added ferric and calcium ion, HPLC; settings: 1 g/l (HEDP 60%: 1.6 g/l), 5 ppm ferric ion, 150 ppm calcium ion, 38° C., 20 days
[12] = Example 10: turbidity of fixing bath with added ferric ion after ageing; settings: 3 g/l in fixing bath with ferric ion, 38° C., 30 days
[13] = Example 11: increase in magenta stain on ageing of material processed with stabilizer; settings: 100 mg/l in stabilizer; 45° C., 70% RH, one week
[14] = Example 5: filter clogging, ageing test of the bleach-fixing solution without photosensitive material; design: key: ◯: scarce clogging; Δ: partial clogging; ×: Substantially the whole filter was clogging, but the liquid could pass through the filter.; ××: the complete clogging, and the liquid extremely difficultly passes through the filter; settings: 35° C., one week, without passing photosensitive material

Row | Structure (SMILES) | Residual amount of hydroxylamine (pH 9.85) [1] [%] | Residual amount of main ingredient (pH 9.85) [1] [%] | Residual amount of hydroxylamine (pH 10.25) [1] [%] | Residual amount of main ingredient (pH 10.25) [1] [%] | Precipitation [2] | ΔDmax [3] | Precipitate [4] | Amount of residual silver [5] [μm/cm^2] | Increase in stain ΔD (G) [6] | Bleaching fog ΔDmin (G) [7] | Blix decoloring ΔDmax (R) ([8]; bleach-fixing time 20 sec) | Blix decoloring ΔDmax (R) ([8]; bleach-fixing time 45 sec) | Quantity of residual silver ([9]; bleach-fixing time 20 sec) [μg/cm^2] | Quantity of residual silver ([9]; bleach-fixing time 45 sec) [μg/cm^2] | Clogging of filter [14] | also measured
1 | CN(CCN(C)C(CC(=O)O)C(=O)O)CCN(C)C(CC(=O)O)C(=O)O (stereo not drawn) [Compound 10] | 74 | 77 | 70 | 76 | ◯ | – | – | – | – | – | – | – | – | – | – | –
2 | O=P(O)(O)CN(CCN(CP(=O)(O)O)CP(=O)(O)O)CP(=O)(O)O [Ethylenediaminetetramethylenephosphonic acid, reference compound] | – | – | – | – | – | −0.05 | B | – | – | – | – | – | – | – | – | –
3 | O=C(O)CN(CCCN(CC(O)O)CC(O)O)CC(=O)O [comp. compd. B, reference compound] | – | – | – | – | – | – | – | 39.7 | 0.08 | 0.08 | 0.00 | 0.00 | 20.2 | 10.6 | – | –
4 | O=C(O)CN(CCN(CC(=O)O)CC(=O)O)CC(=O)O [Ethylenediaminetetraacetic acid, reference compound] | – | – | – | – | – | −0.4 | G | – | – | – | – | – | – | – | – | Precipitation [10]: ◯; Residual amount of main ingredient (pH 9.85) [11]: 71%; Residual amount of main ingredient (pH 10.25) [11]: 60%
5 | O=C(O)CN(CCN(CC(=O)O)CC(=O)O)CCN(CC(=O)O)CC(=O)O [Diethylenetriaminepentaacetic acid, reference compound] | 55 | 60 | 38 | 42 | X | – | – | – | – | – | – | – | – | – | – | –
6 | CN(CCN(C)C(CCC(=O)O)C(=O)O)C(CCC(=O)O)C(=O)O (stereo not drawn) [Compound 43] | – | – | – | – | – | −0.05 | G | – | – | – | – | – | – | – | – | turbidity of the solution [12]: kept the transparency
7 | CN(CCCN(C)C(CC(=O)O)C(=O)O)C(CC(=O)O)C(=O)O (stereo not drawn) [Compound 3] | – | – | – | – | – | −0.05 | G | 7.5 | 0.01 | 0.01 | 0.00 | 0.00 | 3.6 | 1.5 | ◯ | increase in the magenta stain ΔDmin [13]: 0.13; turbidity of the solution [12]: kept the transparency
8 | CN(CCN(C)C(CC(=O)[O-])C(=O)[O-])C(CC(=O)[O-])C(=O)[O-].[Na+].[Na+].[Na+].[Na+] (stereo not drawn) [Compound 12] | – | – | – | – | – | – | – | – | – | – | – | – | – | – | ◯ | –
9 | CN(CCCN(C)[C@@H](CC(=O)O)C(=O)O)[C@@H](CC(=O)O)C(=O)O [Compound 34] | 72 | 74 | 68 | 69 | ◯ | – | – | – | – | – | – | – | – | – | – | –
10 | CN(CCN(C)[C@@H](CC(=O)O)C(=O)O)[C@@H](CC(=O)O)C(=O)O [Compound 32] | 82 | 83 | 79 | 79 | ◯ | −0.05 | G | 5.1 | 0.01 | 0.00 | 0.00 | – | 3.2 | – | ◯ | turbidity of the solution [12]: kept the transparency
11 | O=C(O)CC(NCCNC(CC(=O)O)C(=O)O)C(=O)O (mixture of isomers) [Ethylenediaminedisuccinic acid, reference compound] | 54 | 62 | 38 | 41 | X | – | – | – | – | – | – | – | – | – | – | Precipitation [10]: X; Residual amount of main ingredient (pH 9.85) [11]: 67%; Residual amount of main ingredient (pH 10.25) [11]: 55%
12 | O=C(O)CN(CCN(CC(O)O)CC(O)O)CC(=O)O [comp. compd. A, reference compound] | – | – | – | – | – | – | – | 48.5 | 0.01 | 0.00 | 0.00 | 0.00 | 8.0 | 2.6 | ◯ | –
13 | CN(CCSCCN(C)C(CC(=O)O)C(=O)O)C(CC(=O)O)C(=O)O (stereo not drawn) [Compound 8] | – | – | – | – | – | −0.07 | G | 6.8 | 0.01 | 0.01 | 0.00 | 0.00 | 3.5 | 1.5 | ◯ | turbidity of the solution [12]: kept the transparency
14 | O=P1([O-])OP(=O)([O-])OP(=O)([O-])OP(=O)([O-])OP(=O)([O-])OP(=O)([O-])O1.[Na+].[Na+].[Na+].[Na+].[Na+].[Na+] [Sodium hexametaphosphate, reference compound] | – | – | – | – | – | – | – | – | – | – | – | – | – | – | – | Residual amount of main ingredient (pH 9.85) [11]: 82%; Residual amount of main ingredient (pH 10.25) [11]: 70%
15 | CN(CCOCCN(C)C(CC(=O)O)C(=O)O)C(CC(=O)O)C(=O)O (stereo not drawn) [Compound 26] | 72 | 75 | 68 | 73 | ◯ | −0.05 | G | 6.7 | 0.02 | 0.01 | 0.00 | 0.00 | 3.5 | 1.6 | ◯ | increase in the magenta stain ΔDmin [13]: 0.11; turbidity of the solution [12]: kept the transparency
16 | CN(CNC(CC(=O)O)C(=O)O)C(CC(O)O)C(O)O (stereo not drawn) [comp. compd. C, reference compound] | – | – | – | – | – | – | – | 25.2 | 0.01 | 0.00 | 0.15 | 0.19 | 4.1 | 1.8 | Δ | –
17 | CC(O)(P(=O)(O)O)P(=O)(O)O [1-Hydroxyethylidene-1,1-diphosphonic acid, reference compound] | 68 | 71 | 54 | 59 | ◯ | – | – | – | – | – | – | – | – | – | – | Residual amount of main ingredient (pH 9.85) [11]: 85%; Residual amount of main ingredient (pH 10.25) [11]: 72%
18 | CN(CCN(C)C(CC(=O)O)C(=O)O)C(CC(=O)O)C(=O)O.N.N.N.N (stereo not drawn) [Compound 15] | – | – | – | – | – | – | – | – | – | – | – | – | – | – | ◯ | –
19 | CN(CCN(C)[C@@H](CCC(=O)O)C(=O)O)[C@@H](CCC(=O)O)C(=O)O [Compound 45] | 81 | 82 | 78 | 78 | ◯ | – | – | 5.5 | 0.01 | 0.00 | – | – | – | – | ◯ | Residual amount of main ingredient (pH 9.85) [11]: 84%; Residual amount of main ingredient (pH 10.25) [11]: 80%
20 | CN(CCCCN(C)C(CC(=O)O)C(=O)O)C(CC(=O)O)C(=O)O (stereo not drawn) [Compound 5] | – | – | – | – | – | – | – | – | – | – | – | – | – | – | ◯ | –
21 | CN(CCN[C@@H](CCC(=O)O)C(=O)O)[C@@H](CCC(=O)O)C(=O)O [Compound 46] | – | – | – | – | – | – | – | – | – | – | 0.00 | 0.00 | 3.1 | 1.0 | – | –
22 | CC(CN(C)C(CC(=O)O)C(=O)O)NC(CC(=O)O)C(=O)O (stereo not drawn) [Compound 23] | – | – | – | – | – | – | – | – | – | – | 0.00 | 0.00 | 3.4 | 1.2 | – | –
23 | CCN(CCN(CC)C(CC(=O)O)C(=O)O)C(CC(=O)O)C(=O)O (stereo not drawn) [Compound 38] | – | – | – | – | – | – | – | 8.1 | 0.02 | 0.01 | – | – | – | – | – | –
